Earlier results in patent US20150366911A1, “METHODS FOR REJUVENATING RED BLOOD CELLS” (Biomet Biologics, LLC, priority 2013, published 2015).
At least one structure is not confirmed: it was looked up by name or label, or the drawing left a doubt.

Details: cited from earlier work

## CC(O)C(=O)O (stereo not shown) [Lactate]
  Reference Concentration in Serum or Plasma: 0.3 to 2.2 mmol/L
